{"source": "PubChem BioAssay AID743454 | Peter MacCallum Cancer Centre | 2014", "aim": "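Genes whose loss kills vorinostat-resistant colon cancer cells under vorinostat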 (primary screen)", "system": "human HCT116-VR colon cancer cells, selected for vorinostat resistance", "knock-down reagent": "siRNA pool against human genes, 40 nM siRNA pool", "duration": "vorinostat for 24 h, read-out about 72 h after transfection", "treatment": "vorinostat at 2.5 µM final", "detection": "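Two measures, CellTiter-Fluor viability and luminescent caspase 3/7 activity, each as fold change against same-plate mock wells, mean of duplicates, then screen-wide robust z-score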", "scale": "viability robust z-score: higher = more viable cells than screen typical; caspase robust z-score: higher = more caspase 3/7 activity than screen typical", "rule for the call": "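Hits are knock-downs in viability class RV1/RV2 or caspase class CA1/CA2, excluding ones that killed cells in the no-drug cell-count arm; hits then retested with single siRNAs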", "note": "In all, the deposit lists about 18,000 reagents; shown is a random part of them. In the full data, 450 (2.5%) were called active. 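Single biological run; no consistent viability z cut-off exists, so the class columns, not z-scores, define the calls.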 Unmarked entries are inactive. Reagent sequences are not shown."}
{"gene":"NR2F2 (GeneID 7026)","viability hit class":"no change","caspase hit class":"no change","viability robust z-score":-1.24,"caspase robust z-score":0.58}
{"gene":"DYNC1I2 (GeneID 1781)","viability hit class":"no change","caspase hit class":"no change","viability robust z-score":-1.39,"caspase robust z-score":0.86}
{"gene":"SLC17A3 (GeneID 10786)","viability hit class":"no change","caspase hit class":"no change","viability robust z-score":-0.58,"caspase robust z-score":-0.18}
{"gene":"CERS6 (GeneID 253782)","viability hit class":"no change","caspase hit class":"no change","viability robust z-score":0.36,"caspase robust z-score":-0.4}
{"gene":"KRTAP10-11 (GeneID 386678)","viability hit class":"no change","caspase hit class":"no change","viability robust z-score":-1.28,"caspase robust z-score":-0.21}
{"gene":"AAK1 (GeneID 22848)","viability hit class":"no change","caspase hit class":"no change","viability robust z-score":-1.34,"caspase robust z-score":0.2}
{"gene":"EGR4 (GeneID 1961)","viability hit class":"no change","caspase hit class":"no change","viability robust z-score":0.6,"caspase robust z-score":0.56}
{"gene":"C1orf220 (GeneID 400798)","viability hit class":"no change","caspase hit class":"no change","viability robust z-score":-0.32,"caspase robust z-score":0.63}
{"gene":"KCND1 (GeneID 3750)","viability hit class":"no change","caspase hit class":"no change","viability robust z-score":-1.29,"caspase robust z-score":-0.74}
{"gene":"ABCF1 (GeneID 23)","viability hit class":"no change","caspase hit class":"no change","viability robust z-score":-1.64,"caspase robust z-score":-1.02}
{"gene":"EID2 (GeneID 163126)","viability hit class":"no change","caspase hit class":"no change","viability robust z-score":1.58,"caspase robust z-score":0.19}
{"gene":"ATF7IP2 (GeneID 80063)","viability hit class":"no change","caspase hit class":"no change","viability robust z-score":-0.48,"caspase robust z-score":-0.54}
{"gene":"ELL2 (GeneID 22936)","viability hit class":"no change","caspase hit class":"no change","viability robust z-score":0.86,"caspase robust z-score":-0.54}
{"gene":"IGDCC4 (GeneID 57722)","viability hit class":"no change","caspase hit class":"no change","viability robust z-score":0.3,"caspase robust z-score":0.36}
{"gene":"SETD4 (GeneID 54093)","viability hit class":"no change","caspase hit class":"no change","viability robust z-score":-0.73,"caspase robust z-score":0.32}
{"gene":"GPC3 (GeneID 2719)","viability hit class":"no change","caspase hit class":"no change","viability robust z-score":-0.02,"caspase robust z-score":3.96}
{"gene":"GPR171 (GeneID 29909)","viability hit class":"no change","caspase hit class":"no change","viability robust z-score":0.48,"caspase robust z-score":-0.4}
{"gene":"EMC2 (GeneID 9694)","viability hit class":"no change","caspase hit class":"no change","viability robust z-score":-0.34,"caspase robust z-score":-0.02}
{"gene":"SLC27A5 (GeneID 10998)","viability hit class":"no change","caspase hit class":"no change","viability robust z-score":0.12,"caspase robust z-score":0.27}
{"gene":"NUTM2G (GeneID 441457)","viability hit class":"no change","caspase hit class":"no change","viability robust z-score":0.58,"caspase robust z-score":-0.96}
{"gene":"SMCP (GeneID 4184)","viability hit class":"no change","caspase hit class":"no change","viability robust z-score":-1.1,"caspase robust z-score":0}

Just “caspase hit class” (2 entries from above):
SETD4 (GeneID 54093)	no change
GPC3 (GeneID 2719)	no change
